Assay results from paper PMC11559061.
No constants are given. Whether binding was seen depends on the method and setting. In cells and extracts the contact can be indirect. Some entries that bind do so weakly or less than the wild type. Sequences can lack the tags named with a protein.

Molecular target: S. aureus Fpa fused to the small (SmBIT) or large (LgBIT) portion of luciferase (S. aureus) (UniProt Q2FHW8)
Assay: split reporter; two-plasmid (pLgBIT and pSmBIT) split luciferase in living S. aureus Δfpa::tetM fur* cells, TSB, 37°C, luminescence read after 30 minutes

B1: S. aureus Fpa fused to the small (SmBIT) or large (LgBIT) portion of luciferase (protein, UniProt Q2FHW8 1-91)
chain: MAKQATMKNAALKQLTKDADEILHLIKVQLDNLTLPSCPLYEEVLDTQMFGLQKEVDFAVKLGLVDREDGKQIMLRLEKELSKLHEAFTLV
**Q.** With B1 as the binder, how does the binding read?
**A.** The binding was “binds”.
